# Assay results: US20150291685A1
# Results are given in words; binding and its absence hold for the method and conditions named. Some entries that bind do so weakly or less than the wild type.
# T1: IsdH on S. aureus cells (Staphylococcus aureus) (UniProt Q2FXJ2)
# T1 sequence: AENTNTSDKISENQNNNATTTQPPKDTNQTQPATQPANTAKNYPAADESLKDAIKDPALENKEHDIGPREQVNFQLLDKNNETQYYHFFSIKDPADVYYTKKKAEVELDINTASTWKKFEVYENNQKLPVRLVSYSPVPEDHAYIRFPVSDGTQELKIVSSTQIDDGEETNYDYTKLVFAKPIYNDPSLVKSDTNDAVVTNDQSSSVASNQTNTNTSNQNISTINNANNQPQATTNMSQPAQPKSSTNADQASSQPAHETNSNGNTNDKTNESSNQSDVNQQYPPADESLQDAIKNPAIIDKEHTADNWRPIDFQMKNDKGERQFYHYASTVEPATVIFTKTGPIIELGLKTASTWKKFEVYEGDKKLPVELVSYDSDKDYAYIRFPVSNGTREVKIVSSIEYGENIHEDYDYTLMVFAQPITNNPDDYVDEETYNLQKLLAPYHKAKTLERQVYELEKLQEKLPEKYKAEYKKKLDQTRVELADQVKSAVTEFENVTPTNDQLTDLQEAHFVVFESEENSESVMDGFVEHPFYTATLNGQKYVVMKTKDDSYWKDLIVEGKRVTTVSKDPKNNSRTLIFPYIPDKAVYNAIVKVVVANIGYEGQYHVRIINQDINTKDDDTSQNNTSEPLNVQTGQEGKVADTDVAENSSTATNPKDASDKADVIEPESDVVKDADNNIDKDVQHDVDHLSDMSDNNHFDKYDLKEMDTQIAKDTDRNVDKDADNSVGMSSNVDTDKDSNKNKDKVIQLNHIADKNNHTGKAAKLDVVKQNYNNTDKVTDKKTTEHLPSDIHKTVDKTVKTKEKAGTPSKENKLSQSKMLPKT
# T2: S. aureus Iron regulated surface determinant H (IsdH) (Staphylococcus aureus) (UniProt Q2FXJ2)
# T2 sequence (looked up): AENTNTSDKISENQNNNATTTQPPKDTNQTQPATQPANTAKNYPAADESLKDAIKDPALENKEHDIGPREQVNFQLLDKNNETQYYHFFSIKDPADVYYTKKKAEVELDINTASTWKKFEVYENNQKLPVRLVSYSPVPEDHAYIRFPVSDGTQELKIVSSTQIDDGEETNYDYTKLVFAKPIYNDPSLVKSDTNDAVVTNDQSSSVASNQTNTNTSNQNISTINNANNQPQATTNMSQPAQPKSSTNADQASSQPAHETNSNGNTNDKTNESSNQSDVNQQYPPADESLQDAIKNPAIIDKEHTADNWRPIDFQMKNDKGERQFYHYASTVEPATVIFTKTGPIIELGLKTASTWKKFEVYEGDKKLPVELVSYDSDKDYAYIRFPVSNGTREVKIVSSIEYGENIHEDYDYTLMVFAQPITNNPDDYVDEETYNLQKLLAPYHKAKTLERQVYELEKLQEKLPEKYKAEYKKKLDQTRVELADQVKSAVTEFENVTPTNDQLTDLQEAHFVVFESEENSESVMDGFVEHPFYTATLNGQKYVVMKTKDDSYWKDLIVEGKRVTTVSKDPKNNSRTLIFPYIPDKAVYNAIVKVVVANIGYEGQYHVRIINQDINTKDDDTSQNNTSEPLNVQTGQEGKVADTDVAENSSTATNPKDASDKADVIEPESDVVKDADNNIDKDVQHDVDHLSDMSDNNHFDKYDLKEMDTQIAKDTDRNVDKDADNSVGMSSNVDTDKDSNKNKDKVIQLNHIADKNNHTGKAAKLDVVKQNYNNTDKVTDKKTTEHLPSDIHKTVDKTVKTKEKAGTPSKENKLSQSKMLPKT
# How the values were obtained:
# [1] = target: T1, IsdH on S. aureus cells (Staphylococcus aureus); experiment: staining and FACS of S. aureus after in vivo passage in mouse
# [2] = target: T2, S. aureus Iron regulated surface determinant H (IsdH) (Staphylococcus aureus); experiment: competition with haptoglobin for IsdH (subunit Neat-1)
binder,measurement,setting,value
"mAb 1C1 (antibody, V domains shown) VH: EVQLLESGGGLVQPGGSLRLSCAASGFTFSRYFMGWVRQAPGKGLEWVSSIYSSGGYTSYADSVKGRFTISRDNSKNTLYLQMNSLRAEDTAVYYCARRWRDGTFDYWGQGTLVTVSS VL: DIQMTQSPSSLSASIGDRVTISCRASQSVREYLNWYQQKPGKAPKLLIFAASSLQSGVPSRFSGSGSGTDFTLTISSLQPEDFATYYCQQSYSTRFTFGPGTKVDIK",binding,[1],binds
same,binding,[2],binds
